Reference: PubChem BioAssay AID2685 (National Center for Advancing Translational Sciences (NCATS), 2010)
This is one part of the list. Further columns of the screen follow, without active or inactive calls. The list favours compounds with an active or inconclusive main result. Potencies come from curve fits of mixed quality, noted in brackets.

Test: qHTS Assay for Lipid Storage Modulators in Drosophila S3 Cells;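 for cell number change: cells counted by Cell Tracker Red CMTPX staining in the red channel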
Conditions: BODIPY lipid droplet fluorescence, 18-24 h; for cell number change: measured here: cell count max response, cells fed with added oleic acid
Summary of the method: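 Drosophila S3 cells loaded with oleic acid (400 uM, as added) and compounds at several concentrations; lipid droplets imaged by 488-nm laser-scanning cytometry, 500–530 nm intensity and object ratio to cell channel. Percent activity normalized to 20 uM Triacsin C.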

[1] = measured here: cell number channel AC50, cells fed with added oleic acid
[2] = measured here: lipid fluorescence (Fed channel) AC50, cells fed with added oleic acid

Nc1ccc(N2CCOCC2)c(S(=O)(=O)Nc2cc(Cl)ccc2Cl)c1
cell number change: 28.2%
AC50 [1]: 0.0058 µM [rising, full curve, poor fit]
AC50 [2]: 0.00461 µM [rising, full curve, poor fit]

CCC(C(=O)Nc1cc(C)on1)c1ccccc1 (configuration not stated)
AC50 [1]: 4.61 µM [rising, single point]

N#Cc1ccccc1NC(=O)c1ccc2c(Cl)c3c(nc2c1)CCCC3
cell number change: -16.6%
AC50 [2]: 25.9 µM [falling, partial curve, poor fit]

Cc1cc(=O)oc2cc(OCC(=O)NC3CCCC3)ccc12
cell number change: 9.59%
AC50 [2]: 0.58 µM [rising, single point]

C=CCSc1nnc(-c2c[nH]c3ccccc23)n1CC
cell number change: 18.6%
AC50 [1]: 0.0058 µM [rising, full curve, poor fit]
AC50 [2]: 25.9 µM [rising, single point]

Cc1nn(-c2ccc(Cl)cc2)c(=O)c2ccccc12
cell number change: 26.5%
AC50 [2]: 29.1 µM [rising, single point]

O=C(COc1ncnc2cc(Cl)ccc12)c1ccc2c(c1)OCCO2
cell number change: 5.42%
AC50 [2]: 0.146 µM [falling, partial curve, poor fit]

O=C(CC1C(=O)NCCN1Cc1ccccc1C(F)(F)F)NC1CCCCC1 (configuration not stated)
cell number change: 20.5%

CCS(=O)(=O)Nc1c(C(=O)OC)[nH]c2ccccc12
cell number change: 2.44%

C=CCN1C(=O)CSC1=Nc1ccc(C(=O)O)cc1
cell number change: 3.34%
AC50 [2]: 7.31 µM [falling, single point]

COc1cc2c(cc1OC)C(COc1ccc(F)cc1)N(C(=O)c1ccco1)CC2 (configuration not stated)
cell number change: -68.3%
AC50 [1]: 29.1 µM [falling, single point]
AC50 [2]: 29.1 µM [falling, single point]

CSc1ccccc1NC(=O)COC(=O)Cn1cc(C(F)(F)F)ccc1=O
cell number change: -33.6%
AC50 [1]: 29.1 µM [falling, single point]
AC50 [2]: 14.6 µM [falling, single point]

O=C(O)/C=C/C(=O)NNC(=O)c1cc(-c2ccccc2)n[nH]1
cell number change: 74.6%
AC50 [1]: 18.4 µM [rising, single point]

Cc1ccc(NC(=O)CN(C)Cc2c(O)ccc3ccccc23)cc1
AC50 [1]: 0.00651 µM [rising, full curve, poor fit]

O=C(CSc1nnc(-c2ccccc2)n1-c1ccccc1)c1cccs1
cell number change: -25.4%
AC50 [2]: 0.0206 µM [falling, full curve, poor fit]

CCOC(=O)c1sc2nc(C)nc(NCCc3ccc(S(N)(=O)=O)cc3)c2c1C
cell number change: -5.83%
AC50 [2]: 0.651 µM [rising, single point]
